From paper PMC9279577
Results are given in words; binding and its absence hold for the method and conditions named. In cells and extracts the contact can be indirect. Binding can be weak; no strength is given.

Biological target: LC3B (porcine (endogenous in 3D4/21))
Experiment: co-IP; 3D4/21 cell lysate pre-cleared with Protein A+G agarose beads; LC3B antibody or normal IgG on Protein A+G agarose beads, rotated overnight at 4°C, washed with PBS four times; Western blot for LC3, SOCS1 and SOCS2

binding: binds
B1: SOCS1 (protein, UniProt E7CR04 1-220)
chain: MVAHNQVAADNAISTAAEPRRRPEHSSSSSSSSSSSSSSSSPGVPARPRPCPAAPAPAPGDTHFRTFRSHADYRRITRASALLDACGFYWGPLSVHGAHERLRAEPVGTFLVRDSRQRNCFFALSVKMASGPTSIRVHFQAGRFHLDGSRESFDCLFELLEHYVAAPRRMLGAPLRQRRVRPLQELCRQRIVATVGRENLARIPLNPVLRDYLSSFPFQI
